Reference: the supplement of paper PMC6078165
The reference is the same well before dosing, and untreated signal decays as well.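 Fibroblast labels name human fibroblasts: mostly primary ones from tissues such as uterus (C12385, HUF), lung (H6013), bone (Hs27A), adrenal (HADF) and skin (WS1), plus mammary HMF and breast cancer-associated Hs343T. The cancer cells are basal-like or mesenchymal-like triple-negative breast cancer lines. The paper calls a changed response a hit when it shifts by more than 3x the replicate standard deviation. The tissue of the other fibroblasts is not given here.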

Tested on: MDAMB468
Test: relative JC-1 red fluorescence (viability) vs pre-drug, coculture with fibroblast (fraction); higher = more viable cancer cells
Method: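 JC-1 labelled TNBC cells cocultured 1:1 (1,500 cells each) with CellTrace Violet stained primary or stromal fibroblasts in 384-well plates in FluoroBrite medium, treated with one of 42 anticancer drugs at 0.1, 1, 10 or 100 uM. JC-1 red fluorescence (mitochondrial integrity in cancer cells only) was read by plate reader every 8 h for 72 h. Values are normalised to each well's pre-drug value. The stock of one drug was tenfold lower, so its dose labels may be too high.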

O=C1c2c(O)ccc(O)c2C(=O)c2c(NCCNCCO)ccc(NCCNCCO)c21 [Mitoxantrone]
relative JC-1 red fluorescence
Conditions	8 h	16 h	24 h	32 h	40 h	48 h	56 h	64 h	72 h
0.1 µM, coculture fibroblast: C12385	0.846	0.816	0.7504	0.689	0.643	0.616	0.58	0.548	0.527
0.1 µM, coculture fibroblast: H6013	0.8128	0.73036	0.709	0.711	0.696	0.711	0.694	0.684	0.635
0.1 µM, coculture fibroblast: H6019	0.847	0.771	0.746	0.702	0.679	0.657	0.618	0.589	0.57
0.1 µM, coculture fibroblast: H6076	0.8567	0.839	0.747	0.77	0.72	0.722	0.7	0.691	0.742
0.1 µM, coculture fibroblast: H6231	0.738	0.858	0.798	0.767	0.749	0.724	0.684	0.667	0.66
0.1 µM, coculture fibroblast: HADF	0.816	0.775	0.694	0.682	0.626	0.611	0.581	0.57	0.531
0.1 µM, coculture fibroblast: HCFa	0.7804	0.7056	0.66	0.631	0.568	0.555	0.519	0.491	0.444
0.1 µM, coculture fibroblast: HCPF	0.7706	0.811	0.7058	0.698	0.655	0.638	0.608	0.603	0.597
0.1 µM, coculture fibroblast: HHSteC	0.8257	0.7462	0.6831	0.66	0.62	0.628	0.576	0.556	0.502
0.1 µM, coculture fibroblast: HMF	0.757	0.7721	0.697	0.704	0.656	0.65	0.6233	0.62179	0.628
0.1 µM, coculture fibroblast: HPFa	0.901	0.887	0.821	0.779	0.7406	0.732	0.683	0.666	0.584
0.1 µM, coculture fibroblast: HUF	0.856	0.7649	0.711	0.645	0.602	0.574	0.535	0.508	0.484
0.1 µM, coculture fibroblast: Hs5	0.811	0.905	0.819	0.735	0.857	0.833	0.799	0.786	0.778
0.1 µM, coculture fibroblast: Hs27A	0.7789	0.7071	0.672	0.684	0.64	0.637	0.626	0.619	0.591
0.1 µM, coculture fibroblast: Hs343T	0.815	0.832	0.741	0.745	0.69	0.692	0.641	0.6404	0.645
0.1 µM, coculture fibroblast: WS1	0.8617	0.793	0.736	0.667	0.627	0.588	0.563	0.547	0.528
1 µM, coculture fibroblast: C12385	0.616	0.57	0.638	0.6562	0.633	0.641	0.598	0.5715	0.562
1 µM, coculture fibroblast: H6013	0.417	0.435	0.47	0.487	0.5	0.4818	0.445	0.42	0.346
1 µM, coculture fibroblast: H6019	0.616	0.5531	0.547	0.517	0.493	0.49	0.459	0.448	0.433
1 µM, coculture fibroblast: H6076	0.522	0.473	0.505	0.553	0.477	0.46	0.424	0.394	0.424
1 µM, coculture fibroblast: H6231	0.442	0.411	0.479	0.571	0.49	0.4702	0.417	0.3945	0.3991
1 µM, coculture fibroblast: HADF	0.404	0.428	0.4641	0.5011	0.5294	0.5181	0.488	0.467	0.389
1 µM, coculture fibroblast: HCFa	0.473	0.485	0.515	0.555	0.589	0.596	0.564	0.528	0.455
1 µM, coculture fibroblast: HCPF	0.469	0.471	0.529	0.588	0.505	0.479	0.437	0.416	0.411
1 µM, coculture fibroblast: HHSteC	0.457	0.493	0.551	0.58	0.602	0.593	0.531	0.503	0.423
1 µM, coculture fibroblast: HMF	0.49	0.517	0.573	0.603	0.533	0.509	0.474	0.457	0.463
1 µM, coculture fibroblast: HPFa	0.491	0.476	0.546	0.563	0.59	0.589	0.536	0.513	0.43
1 µM, coculture fibroblast: HUF	0.667	0.618	0.635	0.641	0.6	0.593	0.548	0.524	0.5
1 µM, coculture fibroblast: Hs5	0.583	0.618	0.793	0.836	0.745	0.7	0.656	0.615	0.651
1 µM, coculture fibroblast: Hs27A	0.448	0.463	0.469	0.491	0.486	0.472	0.443	0.418	0.348
1 µM, coculture fibroblast: Hs343T	0.474	0.479	0.538	0.584	0.5	0.476	0.446	0.421	0.418
1 µM, coculture fibroblast: WS1	0.548	0.493	0.504	0.498	0.47	0.458	0.427	0.402	0.389
10 µM, coculture fibroblast: C12385	0.873	0.9	0.783	0.674	0.612	0.613	0.529	0.438	0.389
10 µM, coculture fibroblast: H6013	0.547	0.661	0.539	0.523	0.476	0.444	0.365	0.299	0.171
10 µM, coculture fibroblast: H6019	0.741	0.837	0.696	0.655	0.568	0.547	0.475	0.422	0.386
10 µM, coculture fibroblast: H6076	0.548	0.614	0.682	0.733	0.609	0.57	0.491	0.44	0.484
10 µM, coculture fibroblast: H6231	0.357	0.498	0.455	0.468	0.353	0.321	0.267	0.239	0.235
10 µM, coculture fibroblast: HADF	0.3778	0.406	0.311	0.3077	0.312	0.31	0.266	0.239	0.1551
10 µM, coculture fibroblast: HCFa	0.426	0.436	0.365	0.424	0.43	0.437	0.392	0.316	0.209
10 µM, coculture fibroblast: HCPF	0.591	0.671	0.722	0.772	0.692	0.67	0.639	0.629	0.637
10 µM, coculture fibroblast: HHSteC	0.505	0.64902	0.543	0.503	0.437	0.408	0.325	0.264	0.165
10 µM, coculture fibroblast: HMF	0.73	0.757	0.733	0.75	0.697	0.704	0.686	0.691	0.697
10 µM, coculture fibroblast: HPFa	0.429	0.422	0.297	0.273	0.279	0.306	0.268	0.243	0.164
10 µM, coculture fibroblast: HUF	0.878	0.771	0.542	0.503	0.481	0.492	0.432	0.391	0.33
10 µM, coculture fibroblast: Hs5	0.659	0.737	0.701	0.528	0.422	0.358	0.296	0.232	0.22
10 µM, coculture fibroblast: Hs27A	0.348	0.296	0.319	0.326	0.306	0.292	0.258	0.232	0.156
10 µM, coculture fibroblast: Hs343T	0.662	0.662	0.717	0.751	0.674	0.66	0.624	0.621	0.629
10 µM, coculture fibroblast: WS1	0.84	0.79	0.797	0.685	0.556	0.49	0.417	0.334	0.277
